Measurements: ChEMBL document CHEMBL5120863, “Sophorolipids: Anti-cancer activities and mechanisms” (Bioorg Med Chem, 2022)

System: K562
Test: cells
Details: Homo sapiens, K562, 24 h

- IC50: 2.5 µM
Compound: COc1cccc2c1C(=O)c1c(O)c3c(c(O)c1C2=O)C[C@@](O)(C(=O)CO)C[C@@H]3O[C@H]1C[C@H](N)[C@H](O)[C@H](C)O1 [DOXORUBICIN]
